# Hit rate of the full screen: of about 320,000 compounds, about 2,100 (0.66%) were called active. Inconclusive means that the source gave no clear call. Such entries were picked first, then a sample of the others. Calls follow the shape of the dose curve; as a rule, active = well fitted inhibition curve with a large enough effect in the signal ratio, with a control signal flat (not every such curve was filed as active); inconclusive = small, poorly fitted or top-dose-only effect, or effect the other way, or a change in a side signal; inactive = flat fitted curve, though single readings scatter; the % refers to the signal ratio. Potencies beside an inconclusive call are fits to weak or partial responses and may not hold up.
# Test: qHTS Assay for Lipid Storage Modulators in Drosophila S3 Cells
# Conditions: BODIPY lipid droplet fluorescence, 18-24 h, cells fed with added oleic acid; lipid storage change, negative = inhibition: at 46.1 µM (top of the series) unless noted
# How it was run: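 Laser-scanning cytometry quantifies lipid droplet accumulation (500–530 nm total intensity; droplet/cell object ratio) in oleic acid-fed (400 uM added) Drosophila S3 cells treated with a concentration series. 20 uM Triacsin C defined 100% inhibition.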
# % is scaled to controls: 0 for no effect and ±100 for the full control effect; potency is read from the fitted curve at half-maximal effect.
Structure (SMILES),Potency,"lipid storage change, negative = inhibition"
Clc1ccc(-c2cccs2)nn1,"inconclusive: 7.31 µM [falling, partial curve, poor fit]",
CCc1cc(C(=O)Nc2nnc(C3CC3)s2)sc1C,"inconclusive: 18.4 µM [falling, single point]",
CC(C)(c1ccccc1)c1ccc(OCC(O)CN2CCCC2)cc1 (configuration not stated),,inconclusive: 2.08%
Cc1cc(C)n2cc(COc3ccc4ccccc4c3)nc2n1,"inconclusive: 6.51 µM [activator, partial curve]",
O=C(Oc1ccc(C(=S)N2CCOCC2)cc1)c1ccc(F)cc1,,inconclusive: -57.3%
COc1ccccc1C(=O)NNC(=O)c1ccc(Cl)cc1,,inconclusive: 39.2%
COc1cc(OC)cc(C(=O)Nc2ccc(S(=O)(=O)Nc3cc(C)nc(C)n3)cc2)c1,"inconclusive: 18.4 µM [falling, single point]",
Cc1ccc(C)c2[nH]c(=O)c(C(c3nnnn3C(C)(C)C)N3CC=C(c4ccc(F)cc4)CC3)cc12 (configuration not stated),"inconclusive: 10.3 µM [activator, partial curve, poor fit]",
OC1(c2ccc(F)cc2)CN(c2ccccc2)C2=[N+]1CCS2 (configuration not stated),,inconclusive: -12.4%
CCOc1c(Cl)cc(CNCc2ccncc2)cc1OC,,inconclusive: 14.7%
Cc1nc2nc(C)c(NS(=O)(=O)c3ccc(Cl)cc3)c(=O)n2[nH]1,,inconclusive: 33.5%
CCOc1ccc(S(=O)(=O)N2CCC(C(=O)N3CCCC3)CC2)cc1C,"inconclusive: 29.1 µM [activator, single point]",
CC(=O)Nc1ccc(S(=O)(=O)N2CCN=C2c2ccccc2)cc1,"inconclusive: 1.64 µM [falling, partial curve]",
CCCC(=O)c1c(NC(C)C)cc(C)oc1=O,,inconclusive: 10.7%
COC(=O)/C=C/C(=O)N1CCN(c2cccc(Cl)c2)CC1,,inconclusive: -38.5%
Cc1cccc(N(Cc2ccccc2)C(=O)c2cc(S(=O)(=O)N3CCOCC3)ccc2F)c1,,inconclusive: 32%
CCOC(=O)C1CCN(C(=O)CN2C(=O)c3ccccc3Sc3ncccc32)CC1,,inconclusive: 61%
C=C1c2c(Cl)ccc(O)c2C(O)=C2C(=O)[C@]3(O)C(O)=C(C(N)=O)C(=O)[C@@H](N(C)C)[C@@H]3[C@@H](O)C12 (some centres not stated),,inconclusive: -3.49%
Cn1c(SCC(=O)NCc2ccccc2)nnc1C1CC1,"inconclusive: 4.61 µM [falling, single point]",
COc1cccc(CN(C)C(=O)c2cc(S(=O)(=O)N3CCN(c4ccccc4)CC3)ccc2Cl)c1,"inconclusive: 6.51 µM [falling, single point]",
CC(C)Oc1ccc(CC2CC(=O)NC2=O)cc1 (configuration not stated),"inconclusive: 29.1 µM [falling, single point]",
Cc1cc(=O)[nH]c2ccc(S(=O)(=O)Nc3ccccc3)cc12,"inconclusive: 29.1 µM [activator, single point]",
Cc1onc(-c2ccccc2)c1C(=O)OCC(=O)Nc1ccc(Cl)cc1,,inconclusive: -0.23%
COc1cccc(NC(=O)Cn2c(=O)n(CCC(=O)NCc3ccco3)c(=O)c3ccccc32)c1,,inconclusive: -12.1%

Structure (SMILES),Potency,"lipid storage change, negative = inhibition"
COc1ccc(NC(=O)CCCc2nnc3n(C)c(=O)c4sccc4n23)cc1,"inconclusive: 3.66 µM [falling, partial curve, poor fit]",
O=S(=O)(c1cccc2cccnc12)N1CCCCC1,"inconclusive: 18.4 µM [activator, single point]",
Cc1cc(C)nc(SCC(=O)N2CCOCC2)n1,,inconclusive: 69.4%
O=C(c1cc2ccccc2o1)N1CCCC1,"inconclusive: 25.9 µM [activator, single point]",
CCOc1ccc(/C=C2\SC(=S)N(Nc3ccccc3)C2=O)cc1OC,"inconclusive: 29.1 µM [activator, single point]",
Cc1ccc(CNS(=O)(=O)c2ccc3c(c2)NC(=O)C(C)S3)cc1 (configuration not stated),,inconclusive: -32.8%
CCN1C(=O)[C@H]2[C@@H](c3ccc(-c4ccccc4)cc3)N[C@@](C)(C(=O)OC)[C@H]2C1=O,"inconclusive: 29.1 µM [falling, single point]",
COc1ccc(NC(=O)CSc2nc3c(c(=O)n(C)c(=O)n3C)n2C)c(OC)c1,,inconclusive: -16.4%
Cn1sc(NC(=O)c2cccc(Cl)c2)nc1=O,,inconclusive: 113%
CCOC(=O)c1ccc(NC(=O)N2CC(C)OC(C)C2)cc1 (configuration not stated),,inconclusive: 14.7%
O=S(=O)(NC1CCN(S(=O)(=O)c2ccc3c(c2)OCCO3)CC1)c1c(F)cccc1F,,inconclusive: 14.8%
CC(C)c1nnc(NC(=O)CCC(=O)Nc2ccc(F)cc2)s1,,inconclusive: 0.306%
CC1=C(C(=O)N2CCOCC2)C(c2c(F)cccc2F)NC(=O)N1 (configuration not stated),,inconclusive: -38% [at 0.00295 µM]
O=C(O)C1CCC(=O)N1Cc1ccccc1Cl (configuration not stated),,inactive
CS(=O)c1ccccc1-c1nc(-c2ccc(Cl)cc2)no1 (configuration not stated),,inconclusive: 14.5%
COC(=O)c1ccc(CSc2nc3scc(-c4cccs4)c3c(=O)[nH]2)o1,,inconclusive: -36.3%
COc1ccccc1CNC(=O)C(C)n1nc(C)c2c(C)n(-c3ccccc3)nc2c1=O (configuration not stated),active: 5.8 µM,
COC(=O)c1cc(C(=O)Nc2cccc(C)n2)cc([N+](=O)[O-])c1,,inactive
N#Cc1ccccc1OCC(=O)NNC(=O)c1ccncc1,,inconclusive: 13.2%
C=CCn1c(=NC(=O)c2cc(Cl)sc2Cl)sc2cc(S(N)(=O)=O)ccc21,"inconclusive: 13 µM [falling, single point]",
O=C(NCc1ccc2c(c1)OCO2)C1CCN(S(=O)(=O)c2cccs2)CC1,,inconclusive: -19.5%
CCOC(=O)COc1coc(CN2CCN(c3ccc(F)cc3)CC2)cc1=O,"inconclusive: 6.51 µM [activator, single point]",
Clc1cccc(-c2cc3nc4c(c(N5CCOCC5)n3n2)CCCC4)c1,"inconclusive: 1.46 µM [activator, partial curve]",

# Rewritten bar-delimited: part of the list above.
Structure (SMILES) | Potency | lipid storage change, negative = inhibition
CCOc1ccc(/C=C2\SC(=S)N(Nc3ccccc3)C2=O)cc1OC | inconclusive: 29.1 µM [activator, single point] | 
Cc1ccc(CNS(=O)(=O)c2ccc3c(c2)NC(=O)C(C)S3)cc1 (configuration not stated) |  | inconclusive: -32.8%
CCN1C(=O)[C@H]2[C@@H](c3ccc(-c4ccccc4)cc3)N[C@@](C)(C(=O)OC)[C@H]2C1=O | inconclusive: 29.1 µM [falling, single point] | 
COc1ccc(NC(=O)CSc2nc3c(c(=O)n(C)c(=O)n3C)n2C)c(OC)c1 |  | inconclusive: -16.4%
Cn1sc(NC(=O)c2cccc(Cl)c2)nc1=O |  | inconclusive: 113%
CCOC(=O)c1ccc(NC(=O)N2CC(C)OC(C)C2)cc1 (configuration not stated) |  | inconclusive: 14.7%
O=S(=O)(NC1CCN(S(=O)(=O)c2ccc3c(c2)OCCO3)CC1)c1c(F)cccc1F |  | inconclusive: 14.8%
CC(C)c1nnc(NC(=O)CCC(=O)Nc2ccc(F)cc2)s1 |  | inconclusive: 0.306%
CC1=C(C(=O)N2CCOCC2)C(c2c(F)cccc2F)NC(=O)N1 (configuration not stated) |  | inconclusive: -38% [at 0.00295 µM]
O=C(O)C1CCC(=O)N1Cc1ccccc1Cl (configuration not stated) |  | inactive
CS(=O)c1ccccc1-c1nc(-c2ccc(Cl)cc2)no1 (configuration not stated) |  | inconclusive: 14.5%

# — PubChem BioAssay AID2685 (National Center for Advancing Translational Sciences (NCATS), 2010)
